PMC11257983 (2024)
Changes are numbered by the printed parent chain. Results are given in words; binding and its absence hold for the method and conditions named. Binding seen in cells or lysates may run through a third protein. Some entries that bind do so weakly or less than the wild type. Tags and fused reporters may be left off the sequences shown.

By UniProt entry, the sequences of proteins in these tests, tags left out.
UniProt Q24324: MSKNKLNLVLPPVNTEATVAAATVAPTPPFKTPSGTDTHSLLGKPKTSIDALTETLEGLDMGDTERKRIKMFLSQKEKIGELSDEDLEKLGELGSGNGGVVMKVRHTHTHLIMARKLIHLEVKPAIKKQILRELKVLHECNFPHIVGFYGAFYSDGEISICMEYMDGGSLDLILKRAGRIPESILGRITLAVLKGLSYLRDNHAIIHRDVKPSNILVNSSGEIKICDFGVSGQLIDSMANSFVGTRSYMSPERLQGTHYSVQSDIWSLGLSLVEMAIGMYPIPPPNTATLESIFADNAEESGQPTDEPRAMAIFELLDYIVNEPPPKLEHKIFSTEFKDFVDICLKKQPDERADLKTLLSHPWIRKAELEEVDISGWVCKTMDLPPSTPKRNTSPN

How the values were obtained:
[1] = target: T1, Flag-CNK^2–549 (Drosophila) (UniProt Q7KNQ9); assay: pull-down; GST-HYP as bait, CNK, KSR and MEK variants co-expressed in S2 cells (Fig. 2c,d; Extended Data Fig. 7e); total lysates, overnight at 4 °C; immunoblot
T1 sequence: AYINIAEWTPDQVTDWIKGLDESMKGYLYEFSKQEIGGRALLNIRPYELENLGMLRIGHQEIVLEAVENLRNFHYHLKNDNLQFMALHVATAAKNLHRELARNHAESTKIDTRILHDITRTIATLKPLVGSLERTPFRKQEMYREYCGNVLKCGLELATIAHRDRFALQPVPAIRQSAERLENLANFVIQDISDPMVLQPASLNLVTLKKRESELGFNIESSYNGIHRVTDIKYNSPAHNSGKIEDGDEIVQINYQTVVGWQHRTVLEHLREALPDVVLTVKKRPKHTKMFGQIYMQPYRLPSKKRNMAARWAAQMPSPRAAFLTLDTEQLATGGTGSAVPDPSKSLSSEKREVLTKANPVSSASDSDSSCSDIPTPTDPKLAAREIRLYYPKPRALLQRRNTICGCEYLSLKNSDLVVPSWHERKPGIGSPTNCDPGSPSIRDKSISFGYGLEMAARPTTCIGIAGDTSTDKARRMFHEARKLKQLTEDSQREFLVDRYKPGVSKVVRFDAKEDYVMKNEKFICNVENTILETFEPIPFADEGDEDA

[2] = target: T2, Flag-CNK^2–549 Q200A (Drosophila) (UniProt Q7KNQ9); assay: as above
T2 sequence: T1 sequence with Q199A

[3] = target: T1, Flag-CNK^2–549 (Drosophila); assay: pull-down; GST-HYP as bait, CNK^2–549 co-expressed in S2 cells with Ha-RAS^V12, Pyo-RAF, V5-KSR and Myc-MEK (RRKM); total lysates, overnight at 4 °C; immunoblot
[4] = target: T3, GST-CNK^2–384 (Drosophila) (UniProt Q7KNQ9); assay: pull-down; GST-CNK fragments as bait; S2 cells co-transfected with Pyo-HYP, V5-KSR and Myc-MEK alone, in pairs or all three; total lysates in Triton lysis buffer (50 mM Tris pH 7.5, 150 mM NaCl, 0.2% Triton X-100), overnight at 4 °C; immunoblot
T3 sequence: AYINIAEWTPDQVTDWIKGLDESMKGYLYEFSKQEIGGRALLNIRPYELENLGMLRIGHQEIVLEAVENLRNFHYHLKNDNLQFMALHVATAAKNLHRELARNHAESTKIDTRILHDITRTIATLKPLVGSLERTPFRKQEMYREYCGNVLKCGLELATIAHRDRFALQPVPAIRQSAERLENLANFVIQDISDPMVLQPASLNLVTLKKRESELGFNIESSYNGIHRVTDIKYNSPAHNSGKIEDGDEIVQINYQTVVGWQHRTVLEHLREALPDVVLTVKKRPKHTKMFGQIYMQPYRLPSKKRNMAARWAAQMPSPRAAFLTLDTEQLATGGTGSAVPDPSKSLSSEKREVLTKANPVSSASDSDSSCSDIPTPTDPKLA

[5] = target: T4, GST-CNK^2–549 (Drosophila) (UniProt Q7KNQ9); assay: as above
T4 sequence: T1 sequence

Measured: binding

Myc-MEK (from UniProt Q24324 1-396)
binds: [1] | [2] | [3] | [4] | [5]
